# Laboratory results reported in article PMC10763615 (RSC Chemical Biology, 2023).
# For part of these data: Where a sequence shows no end group, the ends are not given. Some peptides are written in HELM: one residue between dots, names in brackets for other building blocks, links after the first $.
# Assay: peptide made by a vendor (Fmoc solid-phase peptide synthesis; Fmoc-PAL AM resin (Novabiochem) pre-loaded with GSGSDYKDDDDK-NH2; DIC / Oxyma / collidine)
# Conditions: whole synthesis, analytical HPLC/UPLC
row,Substance,final HPLC purity
1,"PEPTIDE1{[ac].M.C.Y.T.K.A.Y.W.H.E.P.W.R.P.C.G.S.G.S.D.Y.K.D.D.D.D.K.[am]}$PEPTIDE1,PEPTIDE1,3:R3-16:R3$$$V2.0",92.50%
2,"PEPTIDE1{[ac].M.C.F.W.K.K.L.H.V.F.W.V.K.D.C.G.S.G.S.D.Y.K.D.D.D.D.K.[am]}$PEPTIDE1,PEPTIDE1,3:R3-16:R3$$$V2.0",95.71%
3,"PEPTIDE1{[ac].M.C.Y.L.D.D.F.Y.S.Y.R.Y.W.A.C.G.S.G.S.D.Y.K.D.D.D.D.K.[am]}$PEPTIDE1,PEPTIDE1,3:R3-16:R3$$$V2.0",88.29%
4,"PEPTIDE1{[ac].M.C.E.H.L.Y.Y.Y.L.L.S.H.R.R.C.G.S.G.S.D.Y.K.D.D.D.D.K.[am]}$PEPTIDE1,PEPTIDE1,3:R3-16:R3$$$V2.0",85.17%
5,"PEPTIDE1{[ac].M.C.N.V.L.L.Y.K.D.L.R.H.C.G.S.G.S.D.Y.K.D.D.D.D.K.[am]}$PEPTIDE1,PEPTIDE1,3:R3-14:R3$$$V2.0",86.47%
6,"PEPTIDE1{[ac].M.C.Y.T.R.F.Y.N.W.E.K.W.Q.L.C.G.S.G.S.D.Y.K.D.D.D.D.K.[am]}$PEPTIDE1,PEPTIDE1,3:R3-16:R3$$$V2.0",87.56%
7,"PEPTIDE1{[ac].M.C.Y.N.K.F.I.T.L.Y.K.V.L.Y.C.G.S.G.S.D.Y.K.D.D.D.D.K.[am]}$PEPTIDE1,PEPTIDE1,3:R3-16:R3$$$V2.0",85.53%
8,"PEPTIDE1{[ac].M.C.E.R.E.V.L.Y.W.L.L.V.T.C.G.S.G.S.D.Y.K.D.D.D.D.K.[am]}$PEPTIDE1,PEPTIDE1,3:R3-15:R3$$$V2.0",85.07%
9,"PEPTIDE1{[ac].M.C.N.D.L.F.Y.Y.L.L.W.R.K.A.C.G.S.G.S.D.Y.K.D.D.D.D.K.[am]}$PEPTIDE1,PEPTIDE1,3:R3-16:R3$$$V2.0",86.11%
10,"PEPTIDE1{[ac].M.C.N.V.L.L.Y.K.V.L.R.H.C.G.S.G.S.D.Y.K.D.D.D.D.K.[am]}$PEPTIDE1,PEPTIDE1,3:R3-14:R3$$$V2.0",86.88%
11,"PEPTIDE1{[ac].M.C.T.T.L.Y.Y.Y.K.L.W.R.R.C.G.S.G.S.E.E.G.S.G.S.D.Y.K.D.D.D.D.K.[am]}$PEPTIDE1,PEPTIDE1,3:R3-15:R3$$$V2.0",85.19%
12,"PEPTIDE1{[ac].M.C.E.N.K.K.V.L.F.Y.Y.L.L.W.C.G.S.G.S.D.Y.K.D.D.D.D.K.[am]}$PEPTIDE1,PEPTIDE1,3:R3-16:R3$$$V2.0",85.09%
13,"PEPTIDE1{[ac].M.C.N.K.H.L.Y.Y.Y.L.L.F.K.Q.C.G.S.G.S.D.Y.K.D.D.D.D.K.[am]}$PEPTIDE1,PEPTIDE1,3:R3-16:R3$$$V2.0",92.86%
14,"PEPTIDE1{[ac].M.C.D.K.Y.W.V.K.Y.W.I.A.W.R.C.G.S.G.S.D.Y.K.D.D.D.D.K.[am]}$PEPTIDE1,PEPTIDE1,3:R3-16:R3$$$V2.0",88.62%

# Assay: general procedure: Fmoc solid-phase peptide synthesis; Fmoc-PAL AM resin (Novabiochem) pre-loaded with GSGSDYKDDDDK-NH2; DIC / Oxyma / collidine
# Conditions: whole synthesis, analytical HPLC/UPLC
Substance,crude HPLC purity,final HPLC purity
"PEPTIDE1{[ac].M.C.Y.L.D.D.F.Y.S.Y.R.Y.W.A.C.G.S.G.S.D.Y.K.D.D.D.D.K.[am]}$PEPTIDE1,PEPTIDE1,3:R3-16:R3$$$V2.0",23.91%,
"PEPTIDE1{[ac].M.C.N.V.L.L.Y.K.D.L.R.H.C.G.S.G.S.D.Y.K.D.D.D.D.K.[am]}$PEPTIDE1,PEPTIDE1,3:R3-14:R3$$$V2.0",65.14%,
"PEPTIDE1{[ac].M.C.Y.T.R.F.Y.N.W.E.K.W.Q.L.C.G.S.G.S.D.Y.K.D.D.D.D.K.[am]}$PEPTIDE1,PEPTIDE1,3:R3-16:R3$$$V2.0",62.39%,
"PEPTIDE1{[ac].M.C.E.R.E.V.L.Y.W.L.L.V.T.C.G.S.G.S.D.Y.K.D.D.D.D.K.[am]}$PEPTIDE1,PEPTIDE1,3:R3-15:R3$$$V2.0",54.53%,
"PEPTIDE1{[ac].M.C.N.V.L.L.Y.K.V.L.R.H.C.G.S.G.S.D.Y.K.D.D.D.D.K.[am]}$PEPTIDE1,PEPTIDE1,3:R3-14:R3$$$V2.0",78.00%,
"PEPTIDE1{[ac].M.C.T.T.L.Y.Y.Y.K.L.W.R.R.C.G.S.G.S.E.E.G.S.G.S.D.Y.K.D.D.D.D.K.[am]}$PEPTIDE1,PEPTIDE1,3:R3-15:R3$$$V2.0",77.24%,
"PEPTIDE1{[ac].M.C.K.K.H.L.L.Y.Y.L.I.A.C.G.S.G.S.D.Y.K.D.D.D.D.K.[am]}$PEPTIDE1,PEPTIDE1,3:R3-14:R3$$$V2.0",63.23%,
"PEPTIDE1{[ac].M.C.Y.N.I.Y.W.Y.K.Y.V.R.R.E.C.G.S.G.S.D.Y.K.D.D.D.D.K.[am]}$PEPTIDE1,PEPTIDE1,3:R3-16:R3$$$V2.0",44.06%,
"PEPTIDE1{M.C.T.F.D.L.F.L.P.F.I.F.C.G.S.G.S.D.Y.K.D.D.D.D.K.[am]}$PEPTIDE1,PEPTIDE1,2:R3-13:R3$$$V2.0",41.31%,
"PEPTIDE1{[ac].M.C.P.K.W.L.I.K.V.L.L.N.C.G.S.G.S.D.Y.K.D.D.D.D.K.[am]}$PEPTIDE1,PEPTIDE1,3:R3-14:R3$$$V2.0",63.09%,
"PEPTIDE1{[ac].M.C.Y.Y.N.F.L.N.K.V.L.V.Y.C.G.S.G.S.D.Y.K.D.D.D.D.K.[am]}$PEPTIDE1,PEPTIDE1,3:R3-15:R3$$$V2.0",62.65%,
"PEPTIDE1{[ac].M.M.S.H.C.W.L.F.K.V.L.L.C.G.S.G.S.D.Y.K.D.D.D.D.K.[am]}$PEPTIDE1,PEPTIDE1,6:R3-14:R3$$$V2.0",67.7%,
"PEPTIDE1{[ac].M.C.H.I.W.Y.F.N.N.Q.F.H.Y.V.C.G.S.G.S.D.Y.K.D.D.D.D.K.[am]}$PEPTIDE1,PEPTIDE1,3:R3-16:R3$$$V2.0",40.00%,
"PEPTIDE1{[ac].M.C.P.R.W.I.Y.Y.Y.M.L.H.C.G.S.G.S.D.Y.K.D.D.D.D.K.[am]}$PEPTIDE1,PEPTIDE1,3:R3-14:R3$$$V2.0",69.38%,
"PEPTIDE1{[ac].M.C.V.K.Y.I.K.Y.W.S.V.F.H.C.G.S.G.S.D.Y.K.D.D.D.D.K.[am]}$PEPTIDE1,PEPTIDE1,3:R3-15:R3$$$V2.0",54.15%,
"PEPTIDE1{M.C.T.K.F.P.W.P.F.P.I.F.W.A.C.G.S.G.S.D.Y.K.D.D.D.D.K.[am]}$PEPTIDE1,PEPTIDE1,2:R3-15:R3$$$V2.0",23.51%,49.5%
"PEPTIDE1{[ac].M.C.D.L.Y.T.V.L.W.Y.K.I.Q.K.E.C.G.S.G.S.D.Y.K.D.D.D.D.K.[am]}$PEPTIDE1,PEPTIDE1,3:R3-17:R3$$$V2.0",26.58%,
"PEPTIDE1{[ac].M.C.W.W.F.K.Q.H.E.F.W.F.K.V.C.G.S.G.S.D.Y.K.D.D.D.D.K.[am]}$PEPTIDE1,PEPTIDE1,3:R3-16:R3$$$V2.0",34.21%,
"PEPTIDE1{[ac].M.C.D.W.Y.V.T.I.Y.K.V.L.K.K.C.G.S.G.S.D.Y.K.D.D.D.D.K.[am]}$PEPTIDE1,PEPTIDE1,3:R3-16:R3$$$V2.0",34.72%,
"PEPTIDE1{[ac].M.C.P.E.R.L.F.Y.W.L.L.V.C.G.S.G.S.D.Y.K.D.D.D.D.K.[am]}$PEPTIDE1,PEPTIDE1,3:R3-14:R3$$$V2.0",0%,51.9%

Substance,crude HPLC purity,final HPLC purity
"PEPTIDE1{[ac].M.C.V.W.W.S.H.P.S.I.W.I.C.G.S.G.S.D.Y.K.D.D.D.D.K.[am]}$PEPTIDE1,PEPTIDE1,3:R3-14:R3$$$V2.0",31.04%,
"PEPTIDE1{[ac].M.C.Y.K.N.I.D.N.G.V.L.V.F.C.G.S.G.S.D.Y.K.D.D.D.D.K.[am]}$PEPTIDE1,PEPTIDE1,3:R3-15:R3$$$V2.0",65.58%,
"PEPTIDE1{M.C.S.N.M.W.K.L.A.N.R.W.W.A.C.G.S.G.S.D.Y.K.D.D.D.D.K.[am]}$PEPTIDE1,PEPTIDE1,2:R3-15:R3$$$V2.0",69.11%,65.3%
"PEPTIDE1{[ac].M.C.I.Y.R.L.S.D.F.W.A.V.C.G.S.G.S.D.Y.K.D.D.D.D.K.[am]}$PEPTIDE1,PEPTIDE1,3:R3-14:R3$$$V2.0",34.87%,
"PEPTIDE1{[ac].M.C.P.Y.Y.V.Q.Y.W.R.V.F.C.G.S.G.S.D.Y.K.D.D.D.D.K.[am]}$PEPTIDE1,PEPTIDE1,3:R3-14:R3$$$V2.0",36.54%,
MCHYCFNKLFLCC,0%,91.9%
"PEPTIDE1{[ac].M.C.I.K.T.F.L.L.W.R.S.S.C.G.S.G.S.D.Y.K.D.D.D.D.K.[am]}$PEPTIDE1,PEPTIDE1,3:R3-14:R3$$$V2.0",55.56%,
"PEPTIDE1{M.C.V.F.D.S.F.L.P.F.V.L.C.G.S.G.S.D.Y.K.D.D.D.D.K.[am]}$PEPTIDE1,PEPTIDE1,2:R3-13:R3$$$V2.0",91.39%,
"PEPTIDE1{[ac].M.C.L.R.H.L.Y.E.P.Y.W.H.C.G.S.G.S.D.Y.K.D.D.D.D.K.[am]}$PEPTIDE1,PEPTIDE1,3:R3-14:R3$$$V2.0",63.49%,
"PEPTIDE1{[ac].M.C.L.W.Y.Y.L.Q.F.H.R.R.E.C.G.S.G.S.D.Y.K.D.D.D.D.K.[am]}$PEPTIDE1,PEPTIDE1,3:R3-15:R3$$$V2.0",27.66%,
"PEPTIDE1{[ac].M.C.T.Y.D.F.V.L.G.H.H.Y.L.I.C.G.S.G.S.D.Y.K.D.D.D.D.K.[am]}$PEPTIDE1,PEPTIDE1,3:R3-16:R3$$$V2.0",36.61%,
"PEPTIDE1{[ac].M.C.D.V.L.L.Y.K.L.F.R.Y.C.G.S.G.S.D.Y.K.D.D.D.D.K.[am]}$PEPTIDE1,PEPTIDE1,3:R3-14:R3$$$V2.0",77.3%,
"PEPTIDE1{[ac].M.C.F.L.D.H.K.T.K.V.F.V.Y.C.G.S.G.S.D.Y.K.D.D.D.D.K.[am]}$PEPTIDE1,PEPTIDE1,3:R3-15:R3$$$V2.0",49.84%,
"PEPTIDE1{[ac].M.C.E.W.F.Y.Y.H.K.S.W.Y.V.Y.C.G.S.G.S.D.Y.K.D.D.D.D.K.[am]}$PEPTIDE1,PEPTIDE1,3:R3-16:R3$$$V2.0",38.86%,
"PEPTIDE1{[ac].M.C.Y.T.V.L.W.Y.K.Y.Q.K.K.C.G.S.G.S.E.E.G.S.G.S.D.Y.K.D.D.D.D.K.[am]}$PEPTIDE1,PEPTIDE1,3:R3-15:R3$$$V2.0",50.47%,
"PEPTIDE1{[ac].M.C.L.V.S.I.Y.K.I.M.R.T.C.G.S.G.S.D.Y.K.D.D.D.D.K.[am]}$PEPTIDE1,PEPTIDE1,3:R3-14:R3$$$V2.0",71.68%,100.0%
"PEPTIDE1{M.C.F.R.W.R.L.F.H.H.L.T.P.F.C.G.S.G.S.D.Y.K.D.D.D.D.K.[am]}$PEPTIDE1,PEPTIDE1,2:R3-15:R3$$$V2.0",80.99%,53.0%
MCSCFPPLCFLIC,37.51%,
"PEPTIDE1{[ac].M.C.H.L.L.Y.Y.K.L.F.H.S.C.G.S.G.S.D.Y.K.D.D.D.D.K.[am]}$PEPTIDE1,PEPTIDE1,3:R3-14:R3$$$V2.0",54.80%,

# Same assay, conditions: whole synthesis, analytical HPLC/UPLC, one disulfide bridge, sequence written open
Substance,crude HPLC purity,final HPLC purity
MCIFDTFLPFIFC,71.94%,
MCLFDSFVPFIFC,78.93%,83.0%
MCFRWRLFHHLTPYC,87.99%,
MCIFDTHMPFIPC,92.48%,
MCIWDSFVPFILC,55.83%,
MCYRHPHSNPLFWAC,74.28%,
MCVYDLFLPFIYC,67.66%,

# Same assay, conditions: whole synthesis, analytical HPLC/UPLC, one disulfide bridge, sequence written open; run 1
row,Substance,crude HPLC purity
1,MCIRWPARQSLFWLC,61.38%

# Same assay, conditions: whole synthesis, analytical HPLC/UPLC, one disulfide bridge, sequence written open; run 2
row,Substance,crude HPLC purity
1,MCIRWPARQSLFWLC,69.82%
